# PubChem BioAssay AID720705 | Peter MacCallum Cancer Centre | 2013
# Screen: 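Kinases whose loss changes AT1R-driven EGFR activation, checked with four siRNAs each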 (follow-up of hits)
# System: human HMEC-LST-AT1R mammary epithelial cells
# Reagents: single siRNA against human genes, 25 nM per duplex
# Duration: 72 h after transfection
# Conditions: angiotensin II stimulation; dose and duration not given
# Measured: 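Signed fold change in phospho-ERK1/2 (AlphaScreen SureFire bead assay) after angiotensin II, relative to the average of mock and GFP siRNA controls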
# Direction: duplexes agreeing on an effect (of 4): higher = more duplexes of this gene agree on an effect; signed phospho-ERK fold change vs controls: higher = more ERK phosphorylation than controls; negative values are decreases
# Hit rule: 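a duplex scores when phospho-ERK changes more than 1.5-fold in either direction; a gene is active if at least 2 of 4 duplexes agree in direction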
# Meaning of the calls: active = high/medium confidence (2-4 of 4 duplexes); inactive = low confidence (0-1 of 4 duplexes)
# This is an unselected part of 200 reagents. 116 of them (58%) were called active. 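Negative fold changes mean less ERK phosphorylation; hits count in both directions; calls are per gene.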 The numbers tell different reagents against one gene apart.
The opening 2 records, ahead of the listing:
target gene,reagent,duplexes agreeing on an effect (of 4),signed phospho-ERK fold change vs controls,activity call
DBF4,1,3,1.64,active
DBF4,2,3,-2,active

Main list, from the first entry:
target gene,reagent,duplexes agreeing on an effect (of 4),signed phospho-ERK fold change vs controls,activity call
DBF4,1,3,1.64,active
DBF4,2,3,-2,active
DBF4,3,3,-1.88,active
DBF4,4,3,-1.86,active
STK16,1,1,-1.41,inactive
STK16,2,1,-1.21,inactive
STK16,3,1,-1.44,inactive
STK16,4,1,-1.79,inactive
DYRK1A,1,3,1.55,active
DYRK1A,2,3,-1.64,active
DYRK1A,3,3,-2.2,active
DYRK1A,4,3,-2,active
AGK,1,1,1.16,inactive
AGK,2,1,1.29,inactive
AGK,3,1,-1.76,inactive
AGK,4,1,1.22,inactive
STRADA,1,1,-1.14,inactive
STRADA,2,1,1.46,inactive
STRADA,3,1,-2.06,inactive
STRADA,4,1,-1.27,inactive
CRKL,1,1,-1.93,inactive
CRKL,2,1,0.102,inactive
CRKL,3,1,0.055,inactive
CRKL,4,1,0.038,inactive
CSNK2B,1,2,1.24,active
CSNK2B,2,2,-3.17,active
CSNK2B,3,2,-1.43,active
CSNK2B,4,2,-1.62,active
CDK11A,1,3,1.54,active
CDK11A,2,3,-2.91,active
CDK11A,3,3,-1.53,active
CDK11A,4,3,-3.14,active
PRKG1,1,1,-1.31,inactive
PRKG1,2,1,-1.21,inactive
PRKG1,3,1,-1.74,inactive
PRKG1,4,1,1.34,inactive
CSNK1G1,1,1,-1.18,inactive
CSNK1G1,2,1,1.76,inactive
CSNK1G1,3,1,-1.48,inactive
CSNK1G1,4,1,-1.13,inactive
SNRK,1,2,-1.91,active
SNRK,2,2,-0.039,active
SNRK,3,2,-2.17,active
SNRK,4,2,1.28,active
PLK3,1,1,-1.12,inactive
PLK3,2,1,-1.04,inactive
PLK3,3,1,1.22,inactive
PLK3,4,1,-2.13,inactive
PRKCD,1,2,1.08,active
PRKCD,2,2,0.03,active
PRKCD,3,2,-2,active
PRKCD,4,2,-2.49,active
